Laboratory results: PubChem BioAssay AID504808 (Drosophila RNAi Screening Center, 2011)

Assay: 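Chromatin factors that keep E2F targets switched off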 (primary screen)
Cell system: Drosophila S2 cells
Knock-down reagent: long dsRNA against Drosophila genes
Detection: 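Firefly luciferase driven by E2F sites, normalised to Renilla luciferase on the same minimal promoter, measured by plate reader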
Reading the numbers: E2F firefly: higher = more E2F reporter activity; Renilla normaliser: higher = more normaliser reporter signal
Rule for the call: 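Called active if the normalised E2F reporter went up by over 50%; the cutoff is arbitrary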
The deposit covers about 21,000 reagents; shown is a random part of those that have a named target and a result. Over the whole deposit, 18 (0.084%) got an active call. 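Raw counts without plate normalisation, one of two replicates; the ratio scores behind the calls were not deposited.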 Names joined by + are all predicted targets of the reagent. Reagent sequences are not shown. The record does not give: the amount of reagent, the time to read-out.

no.	Gene	DRSC id	E2F firefly, rep 1	Renilla normaliser, rep 1	Call
1	CG6144	DRSC02934	54966	3193	inactive
2	CG13609	DRSC14612	1.16e5	5531	inactive
3	Argp	DRSC16510	1.21e5	6641	inactive
4	CG30148	DRSC06391	54048	3540	inactive
5	MED21	DRSC20932	1.32e5	6213	inactive
6	IntS4	DRSC17810	8739	868	inactive
7	Spn28Da	DRSC02162	1.48e5	4707	inactive
8	ken	DRSC04696	41649	179	inactive
9	Den1	DRSC07195	1.03e5	4696	inactive
10	Rca1	DRSC03407	51040	179	inactive
11	CG17224	DRSC00489	1.43e5	4932	inactive
12	Ubc7	DRSC20299	1.61e5	6848	inactive
13	CG13443	DRSC06403	1.02e5	4806	inactive
14	CG30114	DRSC05707	1.60e5	5140	inactive
15	CG6583	DRSC02972	96218	3879	inactive
16	CG5177	DRSC02824	80603	3431	inactive
17	CheB38c	DRSC02389	1.09e5	4810	inactive
18	Jon65Aii	DRSC10665	78013	3267	inactive
19	Ssl1	DRSC11634	77707	3235	inactive
20	CG14424	DRSC18472	1.21e5	6182	inactive
21	srw	DRSC08201	96293	4265	inactive
22	D19B	DRSC11134	78407	3417	inactive
23	cid	DRSC05429	1.43e5	5963	inactive
24	cid	DRSC07592	1.01e5	4544	inactive
25	CG9970	DRSC08644	96138	4011	inactive
26	Vsx2	DRSC17397	70538	2098	inactive
27	Vsx2	DRSC18087	1.02e5	4623	inactive
28	Vsx2	DRSC18088	1.21e5	5078	inactive
29	Vsx2	DRSC18089	1.20e5	4837	inactive
30	mge	DRSC08721	1.11e5	4838	inactive
31	Rfk	DRSC15454	82826	3603	inactive
32	CG13331	DRSC06366	1.04e5	4329	inactive
33	MED14	DRSC08235	44811	2950	inactive
34	Acbp6	DRSC10217	99844	3168	inactive
35	CG14324	DRSC14803	94543	4942	inactive
36	fidipidine	DRSC07618	1.33e5	5207	inactive
37	CG34115	DRSC03840	1.13e5	4360	inactive
38	CG32762	DRSC18298	1.10e5	4727	inactive
39	Not3	DRSC04908	80477	4132	inactive
40	Dif	DRSC03316	1.00e5	4571	inactive
41	CG10175	DRSC13628	82356	2473	inactive
42	CG10175	DRSC14200	1.07e5	6003	inactive
43	scyl	DRSC11392	1.54e5	7678	inactive
44	mEFTu2	DRSC06163	86209	3083	inactive
45	dco	DRSC16929	1304	940	inactive
46	CG2150	DRSC15420	86878	4730	inactive
47	CG4766	DRSC17736	1.19e5	6123	inactive
48	CG4653	DRSC19909	1.62e5	6865	inactive
49	Vmat + CG13330	DRSC06365	2612	183	inactive
50	cn	DRSC07594	1.25e5	4956	inactive
51	CG33543	DRSC00384	1.75e5	6005	inactive
52	CG33543	DRSC00385	1.65e5	5348	inactive
53	CG32483	DRSC07902	1.29e5	4451	inactive
54	Ssrp	DRSC04658	70504	3324	inactive
55	Rpn12	DRSC11275	86830	7898	inactive
56	U2af50	DRSC20297	7765	812	inactive
57	CG34230	DRSC05317	1.32e5	4572	inactive
58	CG18540	DRSC06767	1.32e5	5128	inactive
59	CG10445	DRSC14247	1.40e5	6333	inactive
60	Ilp7	DRSC17895	98798	5133	inactive
61	CG34247	DRSC09933	1.46e5	7635	inactive
62	CG18449	DRSC06754	1.23e5	4550	inactive
63	RpL4	DRSC16833	1325	1044	inactive
64	rut	DRSC20367	1.08e5	3715	inactive
65	CG18557	DRSC00524	1.51e5	5454	inactive
66	Atg3	DRSC10736	76642	3139	inactive
67	Gycalpha99B	DRSC16690	1840	864	inactive
68	daed	DRSC00299	92750	3710	inactive
69	Mfe2	DRSC19869	8006	788	inactive
70	CG42726 + CG42727	DRSC14485	79165	4394	inactive
71	CR31292	DRSC13120	84255	2939	inactive
72	CG8064	DRSC16373	76188	5038	inactive
73	Alh	DRSC12447	56021	3710	inactive
74	Alh	DRSC12487	1.23e5	6107	inactive
75	Alh	DRSC12488	1.43e5	6979	inactive
76	Mal-A7	DRSC06077	1.42e5	4932	inactive
77	CG17219	DRSC00486	1.42e5	5235	inactive
78	CG32447	DRSC11732	82244	3405	inactive
79	CG32447	DRSC11805	1.31e5	6466	inactive
80	Top1	DRSC20295	1.69e5	5373	inactive
81	CG4836	DRSC15659	63293	3212	inactive
82	CG9284 (retired record)	DRSC03899	1.19e5	4580	inactive
83	CG9284 (retired record)	DRSC04536	85015	3786	inactive
84	Cp15	DRSC11118	95618	3994	inactive

Targets above whose gene name starts with A or a:
Gene	DRSC id	E2F firefly, rep 1	Renilla normaliser, rep 1	Call
Argp	DRSC16510	1.21e5	6641	inactive
Acbp6	DRSC10217	99844	3168	inactive
Atg3	DRSC10736	76642	3139	inactive
Alh	DRSC12447	56021	3710	inactive
Alh	DRSC12487	1.23e5	6107	inactive
Alh	DRSC12488	1.43e5	6979	inactive
